In the supplement of paper PMC11006884:
Shown are results outside the selection of targets with a hit, which stands elsewhere. This is a noisy data set. Only a part is listed here, and it is no random draw.

Amino acid sequences for entries named in this document (tags omitted). A change or cut given only in a name is not applied to a line headed by its entry.
UniProt P11388: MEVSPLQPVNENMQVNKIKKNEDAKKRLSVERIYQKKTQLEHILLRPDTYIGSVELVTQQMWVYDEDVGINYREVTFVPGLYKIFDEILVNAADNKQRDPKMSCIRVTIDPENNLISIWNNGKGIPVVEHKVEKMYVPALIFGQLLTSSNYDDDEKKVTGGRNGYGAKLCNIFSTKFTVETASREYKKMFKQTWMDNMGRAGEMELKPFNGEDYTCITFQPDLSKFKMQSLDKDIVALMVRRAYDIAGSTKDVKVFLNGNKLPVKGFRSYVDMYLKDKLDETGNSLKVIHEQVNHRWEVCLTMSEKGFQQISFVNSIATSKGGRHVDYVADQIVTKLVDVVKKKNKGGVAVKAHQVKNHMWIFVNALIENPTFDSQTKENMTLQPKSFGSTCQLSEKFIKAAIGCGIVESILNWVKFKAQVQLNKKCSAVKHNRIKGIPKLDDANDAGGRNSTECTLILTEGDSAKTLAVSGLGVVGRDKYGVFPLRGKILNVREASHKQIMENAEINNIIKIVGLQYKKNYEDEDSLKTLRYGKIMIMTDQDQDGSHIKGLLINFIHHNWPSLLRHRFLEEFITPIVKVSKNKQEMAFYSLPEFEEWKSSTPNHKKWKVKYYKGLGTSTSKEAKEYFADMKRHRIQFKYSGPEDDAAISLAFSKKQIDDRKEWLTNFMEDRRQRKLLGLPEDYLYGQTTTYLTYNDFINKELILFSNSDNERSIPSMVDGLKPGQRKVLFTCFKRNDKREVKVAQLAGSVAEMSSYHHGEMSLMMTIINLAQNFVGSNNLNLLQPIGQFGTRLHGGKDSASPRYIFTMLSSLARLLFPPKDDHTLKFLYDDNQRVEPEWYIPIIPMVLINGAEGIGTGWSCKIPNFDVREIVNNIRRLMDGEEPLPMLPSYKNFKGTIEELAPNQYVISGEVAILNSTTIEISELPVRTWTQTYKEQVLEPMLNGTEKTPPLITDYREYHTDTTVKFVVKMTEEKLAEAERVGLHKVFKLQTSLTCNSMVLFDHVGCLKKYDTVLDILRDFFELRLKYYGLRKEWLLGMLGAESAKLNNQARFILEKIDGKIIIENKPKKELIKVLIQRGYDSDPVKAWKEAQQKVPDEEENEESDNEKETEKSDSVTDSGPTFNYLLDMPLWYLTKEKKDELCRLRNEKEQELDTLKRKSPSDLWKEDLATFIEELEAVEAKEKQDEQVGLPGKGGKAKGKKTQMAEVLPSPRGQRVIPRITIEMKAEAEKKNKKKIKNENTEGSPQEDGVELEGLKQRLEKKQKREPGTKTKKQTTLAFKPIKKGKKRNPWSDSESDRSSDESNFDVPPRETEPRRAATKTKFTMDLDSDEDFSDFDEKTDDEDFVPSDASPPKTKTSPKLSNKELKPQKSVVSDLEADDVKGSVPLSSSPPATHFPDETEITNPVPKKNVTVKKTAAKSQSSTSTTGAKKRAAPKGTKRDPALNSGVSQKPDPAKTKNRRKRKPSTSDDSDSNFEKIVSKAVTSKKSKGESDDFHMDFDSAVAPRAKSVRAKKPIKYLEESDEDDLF
UniProt P0DMV8, whole entry, looked up: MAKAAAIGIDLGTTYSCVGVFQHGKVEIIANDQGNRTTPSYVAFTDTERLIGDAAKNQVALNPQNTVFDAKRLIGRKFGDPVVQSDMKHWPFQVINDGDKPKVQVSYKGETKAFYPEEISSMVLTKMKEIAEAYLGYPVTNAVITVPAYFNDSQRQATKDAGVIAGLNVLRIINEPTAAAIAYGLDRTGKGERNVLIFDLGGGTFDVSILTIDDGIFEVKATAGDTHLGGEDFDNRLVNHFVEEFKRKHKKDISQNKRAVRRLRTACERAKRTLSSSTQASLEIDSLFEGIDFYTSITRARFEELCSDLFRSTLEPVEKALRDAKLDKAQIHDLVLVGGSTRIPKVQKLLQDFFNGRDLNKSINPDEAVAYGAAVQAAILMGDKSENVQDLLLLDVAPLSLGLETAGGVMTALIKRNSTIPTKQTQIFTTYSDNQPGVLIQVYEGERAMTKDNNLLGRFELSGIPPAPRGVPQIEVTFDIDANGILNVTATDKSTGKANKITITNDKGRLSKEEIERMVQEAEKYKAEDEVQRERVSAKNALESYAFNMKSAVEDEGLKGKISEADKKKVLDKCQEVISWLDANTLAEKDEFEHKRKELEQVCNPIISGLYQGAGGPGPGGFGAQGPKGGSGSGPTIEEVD
UniProt P15924: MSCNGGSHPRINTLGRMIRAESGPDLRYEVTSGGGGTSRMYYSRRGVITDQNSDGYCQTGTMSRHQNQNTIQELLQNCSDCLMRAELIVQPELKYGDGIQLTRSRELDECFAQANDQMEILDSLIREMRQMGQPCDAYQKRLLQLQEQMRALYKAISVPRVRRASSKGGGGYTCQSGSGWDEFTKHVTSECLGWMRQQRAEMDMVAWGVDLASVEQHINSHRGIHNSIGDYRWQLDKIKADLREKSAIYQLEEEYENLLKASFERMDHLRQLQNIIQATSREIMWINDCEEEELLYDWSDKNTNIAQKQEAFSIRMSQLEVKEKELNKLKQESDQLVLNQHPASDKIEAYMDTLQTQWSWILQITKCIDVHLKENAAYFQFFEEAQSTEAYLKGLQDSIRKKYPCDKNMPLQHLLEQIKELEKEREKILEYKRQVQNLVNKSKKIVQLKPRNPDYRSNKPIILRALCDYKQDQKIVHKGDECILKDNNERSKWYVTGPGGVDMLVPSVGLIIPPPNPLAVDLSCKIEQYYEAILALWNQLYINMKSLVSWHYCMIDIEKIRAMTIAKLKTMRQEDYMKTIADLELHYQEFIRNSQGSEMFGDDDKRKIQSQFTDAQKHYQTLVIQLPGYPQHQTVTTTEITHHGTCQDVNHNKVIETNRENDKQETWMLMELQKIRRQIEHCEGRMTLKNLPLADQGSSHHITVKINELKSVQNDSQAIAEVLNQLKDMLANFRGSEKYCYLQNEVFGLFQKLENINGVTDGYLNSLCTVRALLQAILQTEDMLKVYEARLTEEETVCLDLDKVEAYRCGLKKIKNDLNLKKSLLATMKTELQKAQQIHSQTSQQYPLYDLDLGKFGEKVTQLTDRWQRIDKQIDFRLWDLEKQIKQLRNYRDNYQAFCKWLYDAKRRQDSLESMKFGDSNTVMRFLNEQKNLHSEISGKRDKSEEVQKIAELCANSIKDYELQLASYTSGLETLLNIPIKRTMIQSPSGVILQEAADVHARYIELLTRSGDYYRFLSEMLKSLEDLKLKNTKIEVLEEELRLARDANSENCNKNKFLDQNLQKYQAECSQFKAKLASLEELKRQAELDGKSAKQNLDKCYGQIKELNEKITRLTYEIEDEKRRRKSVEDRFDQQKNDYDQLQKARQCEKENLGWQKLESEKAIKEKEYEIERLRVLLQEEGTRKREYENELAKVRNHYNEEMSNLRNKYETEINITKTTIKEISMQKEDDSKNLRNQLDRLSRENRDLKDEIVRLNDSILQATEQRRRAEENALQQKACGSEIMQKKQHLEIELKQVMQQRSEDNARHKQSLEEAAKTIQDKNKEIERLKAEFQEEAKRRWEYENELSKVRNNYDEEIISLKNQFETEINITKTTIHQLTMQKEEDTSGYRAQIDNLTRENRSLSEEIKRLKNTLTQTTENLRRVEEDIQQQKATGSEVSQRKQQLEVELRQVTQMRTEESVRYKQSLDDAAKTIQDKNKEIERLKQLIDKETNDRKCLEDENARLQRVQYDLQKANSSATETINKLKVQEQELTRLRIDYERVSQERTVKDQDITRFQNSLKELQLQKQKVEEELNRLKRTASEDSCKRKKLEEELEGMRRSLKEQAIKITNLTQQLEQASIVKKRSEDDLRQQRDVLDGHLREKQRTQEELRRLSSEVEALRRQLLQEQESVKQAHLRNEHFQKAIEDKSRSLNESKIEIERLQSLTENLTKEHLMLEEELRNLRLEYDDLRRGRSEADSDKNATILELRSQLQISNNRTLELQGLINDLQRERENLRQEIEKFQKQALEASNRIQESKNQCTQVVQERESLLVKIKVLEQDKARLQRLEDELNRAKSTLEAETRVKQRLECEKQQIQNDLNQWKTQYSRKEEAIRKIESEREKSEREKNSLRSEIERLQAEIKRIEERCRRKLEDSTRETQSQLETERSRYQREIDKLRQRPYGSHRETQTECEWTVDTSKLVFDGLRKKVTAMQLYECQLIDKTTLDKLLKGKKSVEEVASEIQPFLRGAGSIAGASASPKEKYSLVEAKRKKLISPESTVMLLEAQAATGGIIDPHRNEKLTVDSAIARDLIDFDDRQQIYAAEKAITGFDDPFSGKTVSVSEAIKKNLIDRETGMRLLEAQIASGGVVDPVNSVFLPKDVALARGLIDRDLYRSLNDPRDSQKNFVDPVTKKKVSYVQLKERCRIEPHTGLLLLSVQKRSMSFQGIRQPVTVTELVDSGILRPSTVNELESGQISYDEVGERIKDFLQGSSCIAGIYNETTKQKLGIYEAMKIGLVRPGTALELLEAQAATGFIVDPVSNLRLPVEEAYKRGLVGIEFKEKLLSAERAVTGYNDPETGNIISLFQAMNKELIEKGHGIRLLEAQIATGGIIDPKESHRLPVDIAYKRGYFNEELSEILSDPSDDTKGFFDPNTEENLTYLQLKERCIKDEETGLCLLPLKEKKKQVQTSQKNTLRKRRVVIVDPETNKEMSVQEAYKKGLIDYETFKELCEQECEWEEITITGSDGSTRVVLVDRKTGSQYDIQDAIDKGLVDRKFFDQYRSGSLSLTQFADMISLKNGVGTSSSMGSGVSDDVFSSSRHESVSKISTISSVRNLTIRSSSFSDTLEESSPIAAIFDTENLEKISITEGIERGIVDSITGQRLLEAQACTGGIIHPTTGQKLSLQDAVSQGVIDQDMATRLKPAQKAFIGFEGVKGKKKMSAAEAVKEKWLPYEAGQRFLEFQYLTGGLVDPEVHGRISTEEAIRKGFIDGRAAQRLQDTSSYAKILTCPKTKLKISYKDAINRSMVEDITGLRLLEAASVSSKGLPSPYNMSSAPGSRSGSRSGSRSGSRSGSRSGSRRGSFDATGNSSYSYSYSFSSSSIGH
UniProt P11802: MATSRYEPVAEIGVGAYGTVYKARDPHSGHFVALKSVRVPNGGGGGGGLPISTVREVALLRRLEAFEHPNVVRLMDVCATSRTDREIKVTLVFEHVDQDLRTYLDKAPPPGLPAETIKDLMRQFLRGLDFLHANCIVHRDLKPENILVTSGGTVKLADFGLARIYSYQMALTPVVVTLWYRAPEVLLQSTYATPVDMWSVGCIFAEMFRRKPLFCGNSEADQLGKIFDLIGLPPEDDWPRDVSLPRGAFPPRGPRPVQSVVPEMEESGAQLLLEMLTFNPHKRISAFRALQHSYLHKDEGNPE
UniProt P11766: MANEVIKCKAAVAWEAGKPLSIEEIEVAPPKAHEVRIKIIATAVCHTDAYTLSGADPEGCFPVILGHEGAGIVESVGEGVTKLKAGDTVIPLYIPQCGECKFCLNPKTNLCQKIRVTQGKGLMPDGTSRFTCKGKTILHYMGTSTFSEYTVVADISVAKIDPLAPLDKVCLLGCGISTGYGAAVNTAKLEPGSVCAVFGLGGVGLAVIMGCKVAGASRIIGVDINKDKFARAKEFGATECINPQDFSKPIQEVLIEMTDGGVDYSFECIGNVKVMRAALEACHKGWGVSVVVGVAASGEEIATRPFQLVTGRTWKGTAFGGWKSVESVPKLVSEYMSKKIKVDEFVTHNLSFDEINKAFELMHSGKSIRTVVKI
UniProt P11171, whole entry: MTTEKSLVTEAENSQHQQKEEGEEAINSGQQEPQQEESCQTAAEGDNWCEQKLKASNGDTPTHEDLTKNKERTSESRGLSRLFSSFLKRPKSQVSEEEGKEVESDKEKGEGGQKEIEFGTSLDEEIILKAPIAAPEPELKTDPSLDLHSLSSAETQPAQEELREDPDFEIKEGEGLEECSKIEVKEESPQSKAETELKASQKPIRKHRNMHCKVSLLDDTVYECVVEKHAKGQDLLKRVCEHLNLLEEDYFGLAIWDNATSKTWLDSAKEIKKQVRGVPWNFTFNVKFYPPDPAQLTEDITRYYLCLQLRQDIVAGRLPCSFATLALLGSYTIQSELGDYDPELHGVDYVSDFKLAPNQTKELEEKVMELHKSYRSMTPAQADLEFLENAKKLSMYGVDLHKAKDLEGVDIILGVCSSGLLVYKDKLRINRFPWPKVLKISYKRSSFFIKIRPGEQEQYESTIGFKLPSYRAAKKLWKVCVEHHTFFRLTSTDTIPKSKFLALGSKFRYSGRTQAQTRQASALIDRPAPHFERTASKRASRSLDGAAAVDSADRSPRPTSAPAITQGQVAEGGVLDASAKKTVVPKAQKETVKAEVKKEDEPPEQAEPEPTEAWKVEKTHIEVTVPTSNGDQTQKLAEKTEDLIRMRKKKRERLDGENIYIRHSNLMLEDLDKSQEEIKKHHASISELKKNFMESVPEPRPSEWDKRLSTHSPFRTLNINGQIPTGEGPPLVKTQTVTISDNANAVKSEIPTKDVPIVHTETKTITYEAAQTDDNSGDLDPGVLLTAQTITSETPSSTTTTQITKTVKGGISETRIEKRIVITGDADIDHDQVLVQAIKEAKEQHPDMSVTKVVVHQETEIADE

compound: COC(=O)/C=C/c1ccccc1 [methyl cinnamate]; experiment: log2 ratio of iodoacetamide-alkyne labeling of the cysteine site, DMSO over compound (competition); higher = stronger covalent engagement of the cysteine by the compound, active = 1 or more; details: 500 µM; treatment time 1 h; system: HEK293T cell lysate
Outline: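 Electrophile (500 µM) or vehicle was added to HEK293T lysate (2 mg/mL) for 1 h at ambient temperature before iodoacetamide alkyne labelling (1 h) and click coupling to sCIP-TMT reagents. After pooling, overnight trypsin digestion at 37 °C, streptavidin enrichment and acid elution, peptides were measured by Orbitrap Eclipse LC-MS/MS with FAIMS and quantified in FragPipe. Each cysteine's log2 competition ratio compares mean control-channel with mean compound-channel reporter intensity, control over compound. Data came from duplicate channels across three replicates, excluding cysteines quantified in only one replicate.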

log2 ratio of iodoacetamide-alkyne labeling, inactive:
GTF2F2 C116 (UniProt P13984) 0.29, PCNA C62 (UniProt P12004) 0.145, HSP90AA1 C374 (UniProt P07900) -0.108, PCNA C81 (UniProt P12004) 0.131, TOP2A C455 (UniProt P11388) 0.237, SNRPC C9 (UniProt P09234) 0.101, ATP2A2 C997 (UniProt P16615) 0.245, PFKM C351 (UniProt P08237) -0.123, PEPD C482 (UniProt P12955) 0.14, PARP1 C128 (UniProt P09874) 0.314, DLD C477 (UniProt P09622) -0.00307, PPP3CB C477 (UniProt P16298) 0.3, ESD C56 (UniProt P10768) -0.225, MTHFD1 C152 (UniProt P11586) -0.198, UniProt P0DMV8_C306 0.179, DSP C1052 (UniProt P15924) 0.0999, PDIA4 C209 (UniProt P13667) 0.557, IMPDH2 C95 (UniProt P12268) -0.236, RPS2 C222 (UniProt P15880) 0.0555, ESD C243 (UniProt P10768) 0.0338, CDK4 C215 (UniProt P11802) 0.157, GYS1 C564 (UniProt P13807) 0.327, ADH5 C97 (UniProt P11766) 0.361, DSP C3 (UniProt P15924) 0.198, NME1 C109 (UniProt P15531) 0.184, EPRS C697 (UniProt P07814) 0.0346, EPB41 C224 (UniProt P11171) -0.0805, NFIC C88 (UniProt P08651) 0.2, PRKAR1A C18 (UniProt P10644) 0.389, HMGB1 C23 (UniProt P09429) 0.0879, PRKAR2A C101 (UniProt P13861) 0.313, PRKCSH C471 (UniProt P14314) -0.0369, PFKM C114 (UniProt P08237) 0.497, DSP C1957 (UniProt P15924) 0.258, RPA2 C219 (UniProt P15927) 0.31, HSP90B1 C576 (UniProt P14625) -0.0444, G6PD C446 (UniProt P11413) 0.0414
